Measurements: paper PMC11645142
Results are given in words; binding and its absence hold for the method and conditions named. In cells and extracts the contact can be indirect. Some results given as binding are weak or reduced against the parent protein; the word gives no strength.

By UniProt entry, the sequences of proteins in these tests, tags left out. Where a name states a change or a piece, a line headed by the entry shows the natural chain unless it says otherwise. Chains listed by the source or under a name are the forms on record and can include a tag or linker. Residues count along the entry.
WT UMOD, endogenous in kidneys of UMOD^+/+ mice (mouse (endogenous in kidney)) (Q91X17, residues 25-618): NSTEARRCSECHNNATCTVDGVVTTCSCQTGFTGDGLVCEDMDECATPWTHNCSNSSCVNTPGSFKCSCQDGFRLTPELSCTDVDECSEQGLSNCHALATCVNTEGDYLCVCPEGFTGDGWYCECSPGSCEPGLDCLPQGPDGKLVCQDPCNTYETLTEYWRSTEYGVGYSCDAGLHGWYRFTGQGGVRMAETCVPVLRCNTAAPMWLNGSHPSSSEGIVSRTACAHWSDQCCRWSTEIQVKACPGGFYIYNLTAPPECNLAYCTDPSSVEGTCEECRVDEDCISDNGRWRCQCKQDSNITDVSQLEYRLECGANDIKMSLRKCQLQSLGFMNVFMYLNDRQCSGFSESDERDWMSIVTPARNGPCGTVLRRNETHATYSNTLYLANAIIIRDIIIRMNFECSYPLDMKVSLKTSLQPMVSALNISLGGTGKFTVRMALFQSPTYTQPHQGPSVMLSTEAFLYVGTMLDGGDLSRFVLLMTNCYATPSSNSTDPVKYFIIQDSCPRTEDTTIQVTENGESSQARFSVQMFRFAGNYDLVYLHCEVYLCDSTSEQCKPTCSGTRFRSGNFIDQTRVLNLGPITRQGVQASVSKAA
mutant UMOD Cys125Arg, endogenous in kidneys of UMOD^C125R/C125R knockin mice (mouse (endogenous in kidney)) (Q91X17, form named): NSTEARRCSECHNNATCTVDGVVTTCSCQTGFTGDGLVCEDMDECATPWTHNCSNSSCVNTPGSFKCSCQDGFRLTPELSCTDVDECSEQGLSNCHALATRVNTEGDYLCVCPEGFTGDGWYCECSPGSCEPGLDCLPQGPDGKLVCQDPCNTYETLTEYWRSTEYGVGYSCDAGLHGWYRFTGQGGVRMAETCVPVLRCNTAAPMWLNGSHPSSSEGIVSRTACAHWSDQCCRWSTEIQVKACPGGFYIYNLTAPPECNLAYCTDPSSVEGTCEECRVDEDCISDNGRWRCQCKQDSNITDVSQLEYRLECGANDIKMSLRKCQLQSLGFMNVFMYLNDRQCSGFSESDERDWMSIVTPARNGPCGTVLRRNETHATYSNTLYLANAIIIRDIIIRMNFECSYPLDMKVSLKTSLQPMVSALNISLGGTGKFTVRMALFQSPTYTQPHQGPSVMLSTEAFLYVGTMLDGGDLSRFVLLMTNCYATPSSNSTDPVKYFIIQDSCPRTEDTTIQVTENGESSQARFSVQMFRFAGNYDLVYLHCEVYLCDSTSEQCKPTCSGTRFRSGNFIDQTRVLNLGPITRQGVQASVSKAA
UniProt Q9R0Q3, residues 21-201: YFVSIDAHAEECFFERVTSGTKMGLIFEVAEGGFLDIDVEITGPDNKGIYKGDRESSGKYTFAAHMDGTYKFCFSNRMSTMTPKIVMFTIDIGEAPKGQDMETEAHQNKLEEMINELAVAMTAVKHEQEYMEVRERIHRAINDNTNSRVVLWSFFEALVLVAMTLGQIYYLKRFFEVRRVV

B1: TMED9, endogenous in mouse kidney (protein, UniProt Q99KF1 38-235)
chain: LYFHIGETEKKCFIEEIPDETMVIGNYRTQLYDKQREEYQPATPGLGMFVEVKDPEDKVILARQYGSEGRFTFTSHTPGEHQICLHSNSTKFSLFAGGMLRVHLDIQVGEHANDYAEIAAKDKLSELQLRVRQLVEQVEQIQKEQNYQRWREERFRQTSESTNQRVLWWSILQTLILVAIGVWQMRHLKSFFEAKKLV

Legend:
[1] = target: WT UMOD, endogenous in kidneys of UMOD^+/+ mice (mouse (endogenous in kidney)) (UniProt Q91X17); assay: co-IP; endogenous; whole-kidney lysate (NP-40 lysis buffer, 2 mg protein) of UMOD^+/+ or UMOD^C125R/C125R mice on THP (B-2) agarose beads overnight at 4°C, normal mouse IgG agarose beads as control; blot
[2] = target: mutant UMOD Cys125Arg, endogenous in kidneys of UMOD^C125R/C125R knockin mice (mouse (endogenous in kidney)) (UniProt Q91X17); assay: as above

Molecule	binding [1]	binding [2]
TMED2, endogenous in mouse kidney (from UniProt Q9R0Q3 21-201)	binds	binds
B1	binds	binds
